# According to the supplement of paper PMC6411743:
# Chains of the proteins cited; added tags and fusions are not shown. Lines headed by an entry give the natural chain unless they say otherwise; changes in a name come on top.
# UniProt Q7Z6E9: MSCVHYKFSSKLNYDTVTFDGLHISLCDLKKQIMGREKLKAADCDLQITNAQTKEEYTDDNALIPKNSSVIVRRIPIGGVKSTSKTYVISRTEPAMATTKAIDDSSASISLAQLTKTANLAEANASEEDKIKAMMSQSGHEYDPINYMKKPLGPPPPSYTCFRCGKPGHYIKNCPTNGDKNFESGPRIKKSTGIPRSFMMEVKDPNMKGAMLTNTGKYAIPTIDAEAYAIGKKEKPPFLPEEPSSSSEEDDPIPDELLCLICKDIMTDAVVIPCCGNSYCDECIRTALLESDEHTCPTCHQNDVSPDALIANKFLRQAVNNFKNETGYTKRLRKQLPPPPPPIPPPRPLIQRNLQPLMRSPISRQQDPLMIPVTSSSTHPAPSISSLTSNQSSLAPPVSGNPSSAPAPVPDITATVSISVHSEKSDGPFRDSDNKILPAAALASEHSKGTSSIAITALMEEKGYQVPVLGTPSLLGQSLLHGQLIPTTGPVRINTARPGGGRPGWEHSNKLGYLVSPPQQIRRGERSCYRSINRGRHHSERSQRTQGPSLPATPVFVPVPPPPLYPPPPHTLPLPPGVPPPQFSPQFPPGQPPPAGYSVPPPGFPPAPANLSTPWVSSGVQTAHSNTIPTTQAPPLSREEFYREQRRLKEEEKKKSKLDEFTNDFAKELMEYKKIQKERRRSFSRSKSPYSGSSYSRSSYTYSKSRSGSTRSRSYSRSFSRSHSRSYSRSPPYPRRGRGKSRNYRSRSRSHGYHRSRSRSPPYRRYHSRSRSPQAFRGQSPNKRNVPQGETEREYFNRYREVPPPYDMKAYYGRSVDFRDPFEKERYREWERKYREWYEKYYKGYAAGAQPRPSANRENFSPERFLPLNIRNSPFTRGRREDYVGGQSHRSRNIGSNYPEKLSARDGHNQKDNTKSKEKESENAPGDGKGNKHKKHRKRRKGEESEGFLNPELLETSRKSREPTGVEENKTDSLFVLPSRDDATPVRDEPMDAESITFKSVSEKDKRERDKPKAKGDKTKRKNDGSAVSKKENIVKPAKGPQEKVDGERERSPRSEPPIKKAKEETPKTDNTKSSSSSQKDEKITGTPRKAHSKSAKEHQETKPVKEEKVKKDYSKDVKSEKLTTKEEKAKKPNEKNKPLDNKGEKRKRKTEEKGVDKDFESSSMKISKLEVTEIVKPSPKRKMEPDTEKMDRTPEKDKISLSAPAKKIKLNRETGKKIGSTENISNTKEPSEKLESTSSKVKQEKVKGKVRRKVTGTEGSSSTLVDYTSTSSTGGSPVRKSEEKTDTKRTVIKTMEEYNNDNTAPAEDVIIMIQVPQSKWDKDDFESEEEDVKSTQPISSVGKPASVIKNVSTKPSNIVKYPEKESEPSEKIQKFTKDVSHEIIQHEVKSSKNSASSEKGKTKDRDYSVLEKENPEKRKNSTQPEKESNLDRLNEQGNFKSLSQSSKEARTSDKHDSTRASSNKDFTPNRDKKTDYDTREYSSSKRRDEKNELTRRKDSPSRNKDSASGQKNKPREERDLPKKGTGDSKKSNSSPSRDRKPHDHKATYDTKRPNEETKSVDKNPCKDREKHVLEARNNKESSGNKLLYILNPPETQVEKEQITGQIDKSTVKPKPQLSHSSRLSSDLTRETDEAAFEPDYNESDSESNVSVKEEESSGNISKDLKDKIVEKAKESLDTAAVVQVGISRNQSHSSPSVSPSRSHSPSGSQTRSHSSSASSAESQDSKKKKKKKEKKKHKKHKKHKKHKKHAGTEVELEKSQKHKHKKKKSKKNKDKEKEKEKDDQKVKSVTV
# UniProt Q8IY81: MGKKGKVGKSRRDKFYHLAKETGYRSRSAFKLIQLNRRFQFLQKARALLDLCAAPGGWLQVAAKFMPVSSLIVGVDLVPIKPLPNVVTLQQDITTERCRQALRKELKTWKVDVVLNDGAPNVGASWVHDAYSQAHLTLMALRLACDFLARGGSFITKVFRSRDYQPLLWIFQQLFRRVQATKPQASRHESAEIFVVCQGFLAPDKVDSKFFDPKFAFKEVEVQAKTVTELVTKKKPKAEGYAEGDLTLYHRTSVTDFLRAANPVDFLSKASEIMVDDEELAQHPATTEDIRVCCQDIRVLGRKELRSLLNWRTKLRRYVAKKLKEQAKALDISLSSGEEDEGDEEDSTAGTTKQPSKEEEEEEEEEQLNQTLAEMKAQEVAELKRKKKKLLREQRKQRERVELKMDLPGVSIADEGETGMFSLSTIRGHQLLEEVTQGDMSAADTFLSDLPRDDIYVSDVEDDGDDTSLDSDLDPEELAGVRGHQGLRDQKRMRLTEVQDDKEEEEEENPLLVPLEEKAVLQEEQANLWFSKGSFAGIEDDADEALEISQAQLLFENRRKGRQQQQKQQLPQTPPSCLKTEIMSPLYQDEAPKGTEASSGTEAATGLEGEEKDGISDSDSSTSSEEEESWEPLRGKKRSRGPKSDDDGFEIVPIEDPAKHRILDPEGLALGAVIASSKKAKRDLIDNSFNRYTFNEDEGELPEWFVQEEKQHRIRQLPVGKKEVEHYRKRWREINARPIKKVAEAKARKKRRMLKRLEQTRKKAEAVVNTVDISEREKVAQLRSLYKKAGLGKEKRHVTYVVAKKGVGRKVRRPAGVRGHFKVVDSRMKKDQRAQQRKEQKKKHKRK
# UniProt Q8IY17: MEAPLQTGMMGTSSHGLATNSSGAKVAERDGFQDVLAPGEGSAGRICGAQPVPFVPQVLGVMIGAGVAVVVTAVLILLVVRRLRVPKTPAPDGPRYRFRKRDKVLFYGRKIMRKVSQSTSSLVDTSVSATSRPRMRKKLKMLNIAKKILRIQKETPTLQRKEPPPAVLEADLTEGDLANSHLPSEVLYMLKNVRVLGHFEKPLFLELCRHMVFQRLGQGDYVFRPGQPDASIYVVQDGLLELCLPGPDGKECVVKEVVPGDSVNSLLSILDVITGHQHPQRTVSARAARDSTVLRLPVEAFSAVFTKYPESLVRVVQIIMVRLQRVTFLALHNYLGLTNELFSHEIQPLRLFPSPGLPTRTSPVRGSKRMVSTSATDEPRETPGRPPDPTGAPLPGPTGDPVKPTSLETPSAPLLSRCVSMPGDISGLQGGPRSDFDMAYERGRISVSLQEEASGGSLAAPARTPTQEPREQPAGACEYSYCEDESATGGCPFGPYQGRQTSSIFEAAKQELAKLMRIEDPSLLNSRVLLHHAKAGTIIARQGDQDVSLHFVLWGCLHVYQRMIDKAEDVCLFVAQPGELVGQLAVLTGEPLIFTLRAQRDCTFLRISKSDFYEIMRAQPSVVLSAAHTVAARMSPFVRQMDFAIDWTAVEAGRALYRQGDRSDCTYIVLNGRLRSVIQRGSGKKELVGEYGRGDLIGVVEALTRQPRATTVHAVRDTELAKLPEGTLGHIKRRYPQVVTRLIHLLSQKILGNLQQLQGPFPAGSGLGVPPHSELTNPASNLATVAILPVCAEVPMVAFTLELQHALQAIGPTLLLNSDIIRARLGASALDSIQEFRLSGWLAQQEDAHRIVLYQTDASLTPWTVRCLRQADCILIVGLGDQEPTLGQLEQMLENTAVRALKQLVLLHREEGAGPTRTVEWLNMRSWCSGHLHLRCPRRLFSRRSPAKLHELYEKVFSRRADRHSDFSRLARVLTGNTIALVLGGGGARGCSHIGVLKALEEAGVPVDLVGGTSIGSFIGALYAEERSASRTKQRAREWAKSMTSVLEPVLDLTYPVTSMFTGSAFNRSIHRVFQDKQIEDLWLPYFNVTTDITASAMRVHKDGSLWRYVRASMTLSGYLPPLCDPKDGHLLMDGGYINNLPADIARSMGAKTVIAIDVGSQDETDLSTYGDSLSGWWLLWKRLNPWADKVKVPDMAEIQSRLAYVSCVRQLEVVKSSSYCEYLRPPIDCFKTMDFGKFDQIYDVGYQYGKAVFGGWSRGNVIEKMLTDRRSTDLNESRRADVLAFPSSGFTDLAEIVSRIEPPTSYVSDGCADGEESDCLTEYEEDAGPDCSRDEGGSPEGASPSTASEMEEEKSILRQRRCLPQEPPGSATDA
# UniProt Q8N6N3: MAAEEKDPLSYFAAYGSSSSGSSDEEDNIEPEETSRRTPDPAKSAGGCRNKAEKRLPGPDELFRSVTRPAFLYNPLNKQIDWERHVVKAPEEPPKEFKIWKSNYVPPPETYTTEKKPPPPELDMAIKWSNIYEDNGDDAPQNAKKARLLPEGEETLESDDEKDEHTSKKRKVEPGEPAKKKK
# UniProt Q8N6T7, whole entry: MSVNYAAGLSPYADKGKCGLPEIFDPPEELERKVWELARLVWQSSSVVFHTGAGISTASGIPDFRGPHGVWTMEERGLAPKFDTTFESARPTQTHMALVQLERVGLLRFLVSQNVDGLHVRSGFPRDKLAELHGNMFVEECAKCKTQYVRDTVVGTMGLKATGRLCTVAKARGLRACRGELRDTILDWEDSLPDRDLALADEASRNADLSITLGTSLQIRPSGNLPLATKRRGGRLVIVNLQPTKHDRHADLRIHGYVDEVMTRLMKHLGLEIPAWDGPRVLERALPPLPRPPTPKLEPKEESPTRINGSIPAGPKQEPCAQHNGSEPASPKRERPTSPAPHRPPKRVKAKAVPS
# UniProt Q8IZ81: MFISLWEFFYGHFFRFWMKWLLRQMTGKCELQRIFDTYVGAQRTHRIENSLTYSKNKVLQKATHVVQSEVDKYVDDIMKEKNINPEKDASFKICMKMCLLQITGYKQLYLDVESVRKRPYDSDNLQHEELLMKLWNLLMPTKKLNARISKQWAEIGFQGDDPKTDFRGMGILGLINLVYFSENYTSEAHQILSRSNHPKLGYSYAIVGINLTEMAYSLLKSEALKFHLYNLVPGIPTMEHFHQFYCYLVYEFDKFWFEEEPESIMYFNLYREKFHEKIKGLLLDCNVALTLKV
# UniProt Q8N5C7: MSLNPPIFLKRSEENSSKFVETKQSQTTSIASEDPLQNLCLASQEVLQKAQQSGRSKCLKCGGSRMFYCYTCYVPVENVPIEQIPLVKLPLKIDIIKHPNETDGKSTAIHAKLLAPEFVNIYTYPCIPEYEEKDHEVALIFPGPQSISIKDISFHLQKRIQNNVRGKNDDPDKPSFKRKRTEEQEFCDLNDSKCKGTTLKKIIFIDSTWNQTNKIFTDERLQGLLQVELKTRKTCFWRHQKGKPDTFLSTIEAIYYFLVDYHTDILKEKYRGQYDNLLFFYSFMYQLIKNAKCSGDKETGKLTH
# UniProt Q8N2K0: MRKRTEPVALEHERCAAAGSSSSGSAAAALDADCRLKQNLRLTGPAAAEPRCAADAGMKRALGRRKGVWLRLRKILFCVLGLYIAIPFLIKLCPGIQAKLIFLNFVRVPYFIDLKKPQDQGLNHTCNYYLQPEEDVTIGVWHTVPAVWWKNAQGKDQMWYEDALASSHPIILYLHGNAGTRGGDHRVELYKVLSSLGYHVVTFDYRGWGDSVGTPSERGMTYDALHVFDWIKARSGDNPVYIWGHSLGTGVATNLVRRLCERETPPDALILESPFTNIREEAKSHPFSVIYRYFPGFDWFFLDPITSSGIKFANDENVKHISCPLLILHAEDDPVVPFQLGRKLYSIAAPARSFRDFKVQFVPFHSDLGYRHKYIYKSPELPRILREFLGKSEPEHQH
# UniProt Q8IUH4: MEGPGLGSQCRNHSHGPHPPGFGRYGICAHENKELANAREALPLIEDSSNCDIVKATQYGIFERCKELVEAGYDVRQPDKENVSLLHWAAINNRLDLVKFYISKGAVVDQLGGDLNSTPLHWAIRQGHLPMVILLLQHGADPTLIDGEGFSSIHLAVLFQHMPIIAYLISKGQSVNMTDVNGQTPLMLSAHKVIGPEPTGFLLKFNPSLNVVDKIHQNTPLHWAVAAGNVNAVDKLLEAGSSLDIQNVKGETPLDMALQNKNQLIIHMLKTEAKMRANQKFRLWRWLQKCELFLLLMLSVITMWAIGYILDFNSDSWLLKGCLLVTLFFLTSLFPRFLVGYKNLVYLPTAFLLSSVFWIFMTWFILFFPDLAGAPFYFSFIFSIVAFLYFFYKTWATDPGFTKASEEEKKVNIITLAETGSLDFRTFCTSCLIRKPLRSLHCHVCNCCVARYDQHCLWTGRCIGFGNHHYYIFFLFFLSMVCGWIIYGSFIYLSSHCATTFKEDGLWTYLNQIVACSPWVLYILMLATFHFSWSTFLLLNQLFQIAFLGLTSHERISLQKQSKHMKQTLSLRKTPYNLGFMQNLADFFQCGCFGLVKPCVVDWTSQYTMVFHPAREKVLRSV
# UniProt Q8N6S5: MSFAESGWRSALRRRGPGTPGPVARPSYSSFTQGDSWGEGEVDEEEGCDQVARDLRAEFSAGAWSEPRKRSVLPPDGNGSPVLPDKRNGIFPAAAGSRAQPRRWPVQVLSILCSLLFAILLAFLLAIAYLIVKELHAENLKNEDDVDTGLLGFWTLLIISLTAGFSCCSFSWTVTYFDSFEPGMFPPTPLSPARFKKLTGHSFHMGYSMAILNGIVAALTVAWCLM
# ± gives the standard deviation of the averaged measurements. The entries are a selection whose mix differs from that of the whole data set.
# Compound: Nc1ncnc2c1ncn2[C@@H]1O[C@H](COP(=O)(O)OP(=O)(O)NP(=O)(O)O)[C@@H](O)[C@H]1O [adenylyl imidodiphosphate]
# Experiment: NP40-soluble protein abundance relative to vehicle (solubility fold change) (ratio); higher = more soluble protein in presence of AMP-PNP
# Summary of the method: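 Each value is a fold change relative to the detergent-processed vehicle, calculated per replicate from vsn-normalised intensities. Jurkat crude lysate received eight concentrations (0.1 to 10 mM) for 10 min at room temperature and 3 min at 37 °C, then was solubilised in 0.8% NP40 with benzonase (60 min, 4 °C). The ultracentrifuged supernatant was TMT-labelled and run by LC-MS/MS in three independent experiments.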
Target,NP40-soluble protein abundance (concentration: 1mM),NP40-soluble protein abundance (concentration: 2mM),NP40-soluble protein abundance (concentration: 4mM),NP40-soluble protein abundance (concentration: 6mM),NP40-soluble protein abundance (concentration: 8mM),NP40-soluble protein abundance (concentration: 10mM)
TTC39C (UniProt Q8N584),0.978 ± 0.032,0.996 ± 0.068,0.981 ± 0.045,0.969 ± 0.032,0.96 ± 0.042,0.961 ± 0.07
UniProt Q7Z6E9 and related entries,1.09 ± 0.036,1.16 ± 0.068,1.15 ± 0.02,1.19 ± 0.096,1.19 ± 0.076,1.27 ± 0.08
GPAT4 (UniProt Q86UL3),0.985 ± 0.02,0.9824 ± 0.0083,0.9808 ± 0.0044,0.9746 ± 0.0076,0.99 ± 0.025,0.9487 ± 0.0021
UniProt Q86UW6 and related entries,1.03 ± 0.047,1.03 ± 0.037,1.01 ± 0.053,0.977 ± 0.061,0.945 ± 0.044,0.953 ± 0.053
FTSJ3 (UniProt Q8IY81),1.02 ± 0.031,1.08 ± 0.09,1.06 ± 0.013,1.069 ± 0.0079,1.04 ± 0.0048,1.1 ± 0.031
UniProt Q86WJ1 and related entries,0.989 ± 0.079,0.9547 ± 0.0042,1.02 ± 0.066,1.02 ± 0.071,1.06 ± 0.056,1.02 ± 0.042
UniProt Q8N684 and related entries,1.05 ± 0.036,1.1 ± 0.055,1.07 ± 0.016,1.11 ± 0.036,1.11 ± 0.029,1.19 ± 0.037
UniProt Q8N9N2-2|E9PKM6 and related entries,0.964 ± 0.02,0.978 ± 0.036,0.989 ± 0.046,1.03 ± 0.041,1.04 ± 0.025,1.05 ± 0.041
UniProt Q8IVS2,1.02 ± 0.046,1.01 ± 0.07,0.999 ± 0.012,1.03 ± 0.032,1.03 ± 0.018,1.03 ± 0.051
UniProt Q8IYS2 and related entries,0.998 ± 0.019,0.9791 ± 0.0085,0.999 ± 0.034,0.97 ± 0.033,0.97 ± 0.012,0.989 ± 0.036
SRBD1 (UniProt Q8N5C6),0.986 ± 0.018,0.998 ± 0.036,1.03 ± 0.019,1.08 ± 0.015,1.07 ± 0.033,1.14 ± 0.043
UniProt Q8IY17 and related entries,1.02 ± 0.029,1 ± 0.063,1.04 ± 0.037,1.02 ± 0.033,0.9697 ± 0.0062,0.988 ± 0.04
C1orf52 (UniProt Q8N6N3),0.966 ± 0.027,1.01 ± 0.08,0.993 ± 0.011,0.9843 ± 0.0059,0.947 ± 0.017,0.965 ± 0.014
UniProt Q8N6T7 and related entries,0.899 ± 0.021,0.931 ± 0.017,0.949 ± 0.033,0.932 ± 0.012,0.948 ± 0.041,0.979 ± 0.023
UniProt Q8IZ81 and related entries,0.945 ± 0.039,0.929 ± 0.035,0.929 ± 0.051,0.932 ± 0.049,0.933 ± 0.046,0.9465 ± 0.0094
ZNF687 (UniProt Q8N1G0),1.01 ± 0.046,1.034 ± 0.0073,1.051 ± 0.0088,1.04 ± 0.064,1.03 ± 0.03,1.1 ± 0.016
PIAS4 (UniProt Q8N2W9),1 ± 0.05,0.986 ± 0.035,1.02 ± 0.018,1.02 ± 0.073,1.03 ± 0.047,1.02 ± 0.033
UniProt Q8N1G2,0.976 ± 0.03,0.94 ± 0.054,0.964 ± 0.019,0.9538 ± 0.0066,1.01 ± 0.026,0.9463 ± 0.0023
UniProt Q8N5C7 and related entries,1.02 ± 0.034,0.994 ± 0.049,0.994 ± 0.033,0.978 ± 0.066,0.995 ± 0.06,0.978 ± 0.068
PRPF38A (UniProt Q8NAV1),1 ± 0.021,1.03 ± 0.06,1.03 ± 0.034,1.02 ± 0.044,1.02 ± 0.018,1.02 ± 0.043
DTWD2 (UniProt Q8NBA8),1.01 ± 0.028,0.999 ± 0.04,0.968 ± 0.014,0.959 ± 0.038,0.943 ± 0.057,0.951 ± 0.044
UniProt Q8N2K0 and related entries,1.05 ± 0.022,1.01 ± 0.12,1.07 ± 0.019,1.01 ± 0.018,1.07 ± 0.026,1.04 ± 0.05
UniProt Q8IXI2-2|Q8IXI2-3,0.97 ± 0.013,0.935 ± 0.088,0.998 ± 0.019,1.04 ± 0.051,1.04 ± 0.056,0.994 ± 0.05
UniProt Q7Z7A3,0.997 ± 0.015,1 ± 0.011,1.02 ± 0.029,1.02 ± 0.022,1.026 ± 0.004,1.024 ± 0.0013
ZADH2 (UniProt Q8N4Q0),0.986 ± 0.039,0.961 ± 0.051,1 ± 0.046,0.969 ± 0.06,0.996 ± 0.034,0.984 ± 0.043
UniProt Q8IUX7,1.01 ± 0.036,1 ± 0.024,1.03 ± 0.014,0.983 ± 0.032,0.9724 ± 0.005,0.984 ± 0.0099
UniProt Q8IUH4 and related entries,0.971 ± 0.038,0.957 ± 0.055,1.02 ± 0.076,0.955 ± 0.039,0.932 ± 0.02,0.966 ± 0.077
UniProt Q8IUD2 and related entries,1 ± 0.027,1.05 ± 0.081,1.01 ± 0.017,1 ± 0.033,0.9781 ± 0.0069,0.9884 ± 0.0061
ARL6IP6 (UniProt Q8N6S5),1.02 ± 0.034,1.02 ± 0.028,1.04 ± 0.022,0.971 ± 0.011,1.01 ± 0.025,1.01 ± 0.025
UniProt Q8IYB1,0.999 ± 0.037,0.966 ± 0.051,0.971 ± 0.042,0.9809 ± 0.0042,0.98 ± 0.022,0.965 ± 0.018

# Reformatted: results already given.
Target	NP40-soluble protein abundance (concentration: 1mM)	NP40-soluble protein abundance (concentration: 2mM)	NP40-soluble protein abundance (concentration: 4mM)	NP40-soluble protein abundance (concentration: 6mM)	NP40-soluble protein abundance (concentration: 8mM)	NP40-soluble protein abundance (concentration: 10mM)
UniProt Q8IY17 and related entries	1.02 ± 0.029	1 ± 0.063	1.04 ± 0.037	1.02 ± 0.033	0.9697 ± 0.0062	0.988 ± 0.04
C1orf52 (UniProt Q8N6N3)	0.966 ± 0.027	1.01 ± 0.08	0.993 ± 0.011	0.9843 ± 0.0059	0.947 ± 0.017	0.965 ± 0.014
UniProt Q8N6T7 and related entries	0.899 ± 0.021	0.931 ± 0.017	0.949 ± 0.033	0.932 ± 0.012	0.948 ± 0.041	0.979 ± 0.023
UniProt Q8IZ81 and related entries	0.945 ± 0.039	0.929 ± 0.035	0.929 ± 0.051	0.932 ± 0.049	0.933 ± 0.046	0.9465 ± 0.0094
ZNF687 (UniProt Q8N1G0)	1.01 ± 0.046	1.034 ± 0.0073	1.051 ± 0.0088	1.04 ± 0.064	1.03 ± 0.03	1.1 ± 0.016
